Here are results for 1 molecule from publication PMC10951066, “The self-reactive FVIII T cell repertoire in healthy individuals relies on a short set of epitopes and public clonotypes” (Frontiers in Immunology, 2024).

This series deals with CD4 T cells from healthy donors. In words: TCR CDR3β bulk sequencing of sorted antigen-specific CD4 T cells. The format is cell-based, human.

B1: ovalbumin: chicken ovalbumin, non-self-protein benchmark (protein, UniProt P01012 2-386, looked up)
Ovalbumin: GSIGAASMEFCFDVFKELKVHHANENIFYCPIAIMSALAMVYLGAKDSTRTQINKVVRFDKLPGFGDSIEAQCGTSVNVHSSLRDILNQITKPNDVYSFSLASRLYAEERYPILPEYLQCVKELYRGGLEPINFQTAADQARELINSWVESQTNGIIRNVLQPSSVDSQTAMVLVNAIVFKGLWEKAFKDEDTQAMPFRVTEQESKPVQMMYQIGLFRVASMASEKMKILELPFASGTMSMLVLLPDEVSGLEQLESIINFEKLTEWTSSNVMEERKIKVYLPRMKMEEKYNLTSVLMAMGITDVFSSSANLSGISSAESLKISQAVHAAHAEINEAGREVVGSAEAGVDAASVSEEFRADHPFLFCIKHIATNAVLFFGRCVSP
B1: the Gini-Simpson index (T cell repertoire diversity, four donors) was 0.95. In addition, for the setting “four donors”, the “average number per donor of detected clonotypes” value was found to be 918 and the total clonotypes detected is recorded as 3,672. Moreover, the “clonotypes covering 50% of the total repertoire” value (on average per donor) was 33.
